The supplement of paper PMC12819154, “High-throughput peptide-centric local stability assay extends protein–ligand identification to membrane proteins, tissues and bacteria” (Nature Structural & Molecular Biology, 2025)
Some of the results follow. Small differences around the control level are noise.

Protein sequences, listed by entry. Tags and fused reporters are not part of them. Lines headed by an entry give the natural chain unless they say otherwise; changes in a name come on top.
UniProt P19001: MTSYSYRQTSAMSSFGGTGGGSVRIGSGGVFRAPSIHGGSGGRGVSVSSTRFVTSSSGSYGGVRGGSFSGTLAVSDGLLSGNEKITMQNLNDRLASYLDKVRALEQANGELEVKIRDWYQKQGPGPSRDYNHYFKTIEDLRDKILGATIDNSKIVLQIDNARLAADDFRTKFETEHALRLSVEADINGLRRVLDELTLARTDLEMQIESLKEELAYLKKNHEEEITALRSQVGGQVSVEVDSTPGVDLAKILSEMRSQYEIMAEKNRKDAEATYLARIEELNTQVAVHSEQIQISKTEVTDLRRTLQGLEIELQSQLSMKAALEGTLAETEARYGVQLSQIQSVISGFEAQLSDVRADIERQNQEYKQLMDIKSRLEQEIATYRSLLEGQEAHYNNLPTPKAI
UniProt P29788: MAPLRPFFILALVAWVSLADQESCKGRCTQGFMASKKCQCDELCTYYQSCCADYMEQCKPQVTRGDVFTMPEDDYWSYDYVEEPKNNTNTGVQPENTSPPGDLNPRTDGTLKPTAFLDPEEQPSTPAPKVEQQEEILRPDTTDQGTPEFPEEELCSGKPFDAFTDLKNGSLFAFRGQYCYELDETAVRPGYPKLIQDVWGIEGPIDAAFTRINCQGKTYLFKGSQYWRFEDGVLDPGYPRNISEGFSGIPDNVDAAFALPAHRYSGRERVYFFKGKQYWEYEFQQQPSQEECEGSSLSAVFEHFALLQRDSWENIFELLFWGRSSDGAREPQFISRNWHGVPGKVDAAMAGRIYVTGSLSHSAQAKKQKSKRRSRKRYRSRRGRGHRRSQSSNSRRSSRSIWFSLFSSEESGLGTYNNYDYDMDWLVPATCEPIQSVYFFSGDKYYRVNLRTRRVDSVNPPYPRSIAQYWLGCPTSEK
UniProt P30658, whole entry: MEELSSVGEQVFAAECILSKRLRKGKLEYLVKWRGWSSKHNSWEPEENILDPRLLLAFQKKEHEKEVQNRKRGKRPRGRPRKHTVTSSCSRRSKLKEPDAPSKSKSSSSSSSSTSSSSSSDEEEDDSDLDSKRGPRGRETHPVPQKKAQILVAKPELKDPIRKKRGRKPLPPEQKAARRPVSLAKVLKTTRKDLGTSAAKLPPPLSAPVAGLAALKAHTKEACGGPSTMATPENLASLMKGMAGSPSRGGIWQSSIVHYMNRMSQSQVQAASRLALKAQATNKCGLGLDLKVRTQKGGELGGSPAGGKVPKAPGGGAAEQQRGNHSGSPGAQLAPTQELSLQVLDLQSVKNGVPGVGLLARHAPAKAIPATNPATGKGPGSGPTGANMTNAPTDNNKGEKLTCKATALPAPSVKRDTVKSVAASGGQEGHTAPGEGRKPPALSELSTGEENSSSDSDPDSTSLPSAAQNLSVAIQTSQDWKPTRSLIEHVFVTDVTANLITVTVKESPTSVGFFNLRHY
UniProt P20108: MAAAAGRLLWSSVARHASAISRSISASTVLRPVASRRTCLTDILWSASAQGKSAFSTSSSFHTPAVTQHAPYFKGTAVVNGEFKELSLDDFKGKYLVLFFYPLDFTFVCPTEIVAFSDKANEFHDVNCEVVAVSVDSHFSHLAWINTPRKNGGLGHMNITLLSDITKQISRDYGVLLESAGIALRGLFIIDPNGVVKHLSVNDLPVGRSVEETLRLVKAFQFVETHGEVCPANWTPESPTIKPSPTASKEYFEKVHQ
UniProt P25206: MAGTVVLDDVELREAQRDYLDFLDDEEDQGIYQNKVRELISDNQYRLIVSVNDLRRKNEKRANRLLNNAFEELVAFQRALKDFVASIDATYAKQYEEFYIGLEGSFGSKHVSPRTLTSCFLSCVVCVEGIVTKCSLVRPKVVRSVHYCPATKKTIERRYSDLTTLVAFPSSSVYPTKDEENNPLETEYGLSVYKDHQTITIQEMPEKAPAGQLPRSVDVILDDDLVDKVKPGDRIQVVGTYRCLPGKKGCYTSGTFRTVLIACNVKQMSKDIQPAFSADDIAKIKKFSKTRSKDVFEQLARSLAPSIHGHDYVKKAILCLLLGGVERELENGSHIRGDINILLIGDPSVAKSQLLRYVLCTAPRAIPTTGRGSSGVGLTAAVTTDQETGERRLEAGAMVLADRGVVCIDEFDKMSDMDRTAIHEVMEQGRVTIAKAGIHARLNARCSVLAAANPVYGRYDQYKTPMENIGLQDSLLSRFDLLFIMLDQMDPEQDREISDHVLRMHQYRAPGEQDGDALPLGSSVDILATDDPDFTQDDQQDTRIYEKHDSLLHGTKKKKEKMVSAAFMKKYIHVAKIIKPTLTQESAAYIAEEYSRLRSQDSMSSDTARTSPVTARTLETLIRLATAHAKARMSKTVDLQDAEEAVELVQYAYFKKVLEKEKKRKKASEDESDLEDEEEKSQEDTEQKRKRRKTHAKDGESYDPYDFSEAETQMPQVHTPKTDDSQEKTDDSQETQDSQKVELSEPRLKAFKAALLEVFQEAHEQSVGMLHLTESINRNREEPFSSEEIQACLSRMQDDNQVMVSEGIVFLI
UniProt P21570: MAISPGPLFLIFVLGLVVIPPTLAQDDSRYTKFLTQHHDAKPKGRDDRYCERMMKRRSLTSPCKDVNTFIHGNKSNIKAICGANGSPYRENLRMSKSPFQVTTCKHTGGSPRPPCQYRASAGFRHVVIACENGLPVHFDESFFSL
UniProt P26638: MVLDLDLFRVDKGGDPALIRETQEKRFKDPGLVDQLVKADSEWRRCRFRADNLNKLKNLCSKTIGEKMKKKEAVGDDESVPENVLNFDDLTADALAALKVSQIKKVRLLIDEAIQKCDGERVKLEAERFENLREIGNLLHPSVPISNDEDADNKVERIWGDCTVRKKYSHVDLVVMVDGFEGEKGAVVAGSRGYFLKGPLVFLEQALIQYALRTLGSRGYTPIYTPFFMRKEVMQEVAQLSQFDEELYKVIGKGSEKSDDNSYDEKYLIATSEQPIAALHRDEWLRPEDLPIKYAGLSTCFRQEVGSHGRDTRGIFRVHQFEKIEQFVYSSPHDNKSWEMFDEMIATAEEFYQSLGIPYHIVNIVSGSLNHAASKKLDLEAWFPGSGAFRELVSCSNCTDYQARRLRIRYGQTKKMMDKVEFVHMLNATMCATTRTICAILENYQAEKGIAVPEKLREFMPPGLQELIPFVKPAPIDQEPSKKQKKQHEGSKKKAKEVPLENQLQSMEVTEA
UniProt P33175: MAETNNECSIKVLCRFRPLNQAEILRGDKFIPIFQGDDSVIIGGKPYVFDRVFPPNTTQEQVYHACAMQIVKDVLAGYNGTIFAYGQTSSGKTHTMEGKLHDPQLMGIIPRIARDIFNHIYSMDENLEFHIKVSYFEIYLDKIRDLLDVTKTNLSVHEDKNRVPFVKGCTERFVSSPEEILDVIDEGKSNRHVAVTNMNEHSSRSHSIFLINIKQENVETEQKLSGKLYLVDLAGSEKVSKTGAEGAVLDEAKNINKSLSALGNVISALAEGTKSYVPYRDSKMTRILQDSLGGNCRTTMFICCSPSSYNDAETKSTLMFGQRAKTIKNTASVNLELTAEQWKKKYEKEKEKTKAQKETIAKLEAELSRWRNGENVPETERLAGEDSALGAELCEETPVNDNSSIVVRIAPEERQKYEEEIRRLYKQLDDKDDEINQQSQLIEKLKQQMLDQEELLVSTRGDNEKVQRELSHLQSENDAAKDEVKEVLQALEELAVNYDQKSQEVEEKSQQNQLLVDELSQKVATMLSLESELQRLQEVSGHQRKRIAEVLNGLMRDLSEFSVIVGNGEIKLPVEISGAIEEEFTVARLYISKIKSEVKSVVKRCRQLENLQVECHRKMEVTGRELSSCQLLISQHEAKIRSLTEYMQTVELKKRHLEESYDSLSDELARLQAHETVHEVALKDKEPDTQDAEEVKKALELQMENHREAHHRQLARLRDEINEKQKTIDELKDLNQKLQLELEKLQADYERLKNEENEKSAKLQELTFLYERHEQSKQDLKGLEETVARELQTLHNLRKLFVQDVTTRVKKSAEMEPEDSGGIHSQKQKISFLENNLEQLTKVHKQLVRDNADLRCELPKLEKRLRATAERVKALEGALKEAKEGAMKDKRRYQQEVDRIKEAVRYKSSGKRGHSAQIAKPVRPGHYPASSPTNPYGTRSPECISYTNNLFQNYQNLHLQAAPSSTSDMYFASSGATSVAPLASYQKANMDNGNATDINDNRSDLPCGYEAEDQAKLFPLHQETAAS
UniProt P28352, whole entry: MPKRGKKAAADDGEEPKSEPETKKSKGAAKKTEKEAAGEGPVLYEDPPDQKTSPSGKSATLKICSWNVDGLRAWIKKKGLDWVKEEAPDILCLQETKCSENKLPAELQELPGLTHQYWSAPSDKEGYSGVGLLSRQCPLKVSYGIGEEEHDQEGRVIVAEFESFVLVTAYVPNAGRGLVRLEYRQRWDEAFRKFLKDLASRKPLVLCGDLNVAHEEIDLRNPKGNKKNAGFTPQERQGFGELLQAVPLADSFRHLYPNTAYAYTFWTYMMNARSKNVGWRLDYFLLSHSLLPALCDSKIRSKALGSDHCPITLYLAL
UniProt P20065: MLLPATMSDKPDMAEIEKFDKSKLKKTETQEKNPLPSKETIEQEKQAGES
UniProt P25976: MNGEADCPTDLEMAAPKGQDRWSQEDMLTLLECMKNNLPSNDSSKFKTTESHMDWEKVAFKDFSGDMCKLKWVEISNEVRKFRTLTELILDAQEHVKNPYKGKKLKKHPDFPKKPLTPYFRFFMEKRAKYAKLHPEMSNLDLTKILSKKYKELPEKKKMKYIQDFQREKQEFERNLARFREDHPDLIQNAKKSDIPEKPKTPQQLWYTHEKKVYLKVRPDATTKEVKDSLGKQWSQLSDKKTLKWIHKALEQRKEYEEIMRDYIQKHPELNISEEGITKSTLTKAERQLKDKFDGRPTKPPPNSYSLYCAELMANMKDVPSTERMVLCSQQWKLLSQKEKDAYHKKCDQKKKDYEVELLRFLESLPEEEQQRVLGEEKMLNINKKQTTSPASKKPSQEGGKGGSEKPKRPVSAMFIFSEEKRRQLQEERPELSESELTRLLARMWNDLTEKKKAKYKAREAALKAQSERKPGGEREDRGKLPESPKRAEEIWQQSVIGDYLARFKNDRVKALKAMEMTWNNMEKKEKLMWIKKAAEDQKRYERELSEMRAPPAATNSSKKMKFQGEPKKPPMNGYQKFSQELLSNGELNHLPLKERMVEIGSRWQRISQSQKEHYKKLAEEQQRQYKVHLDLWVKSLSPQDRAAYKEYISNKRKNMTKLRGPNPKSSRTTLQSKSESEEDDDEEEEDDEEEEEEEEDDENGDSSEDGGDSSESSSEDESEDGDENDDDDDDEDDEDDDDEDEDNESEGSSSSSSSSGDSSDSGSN
UniProt P23204: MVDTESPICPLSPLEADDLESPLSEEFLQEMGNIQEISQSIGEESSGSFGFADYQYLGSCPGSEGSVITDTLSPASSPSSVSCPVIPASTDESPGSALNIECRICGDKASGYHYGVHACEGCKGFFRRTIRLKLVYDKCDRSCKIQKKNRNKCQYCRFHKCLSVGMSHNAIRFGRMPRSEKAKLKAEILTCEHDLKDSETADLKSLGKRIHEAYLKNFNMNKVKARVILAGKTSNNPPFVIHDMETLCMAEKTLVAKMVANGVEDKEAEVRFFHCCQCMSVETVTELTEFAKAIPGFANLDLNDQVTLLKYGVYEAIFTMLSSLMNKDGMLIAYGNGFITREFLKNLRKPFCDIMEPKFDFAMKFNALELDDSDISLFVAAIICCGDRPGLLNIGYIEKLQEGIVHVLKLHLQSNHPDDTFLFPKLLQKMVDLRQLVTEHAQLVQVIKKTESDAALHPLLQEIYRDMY
UniProt P18828: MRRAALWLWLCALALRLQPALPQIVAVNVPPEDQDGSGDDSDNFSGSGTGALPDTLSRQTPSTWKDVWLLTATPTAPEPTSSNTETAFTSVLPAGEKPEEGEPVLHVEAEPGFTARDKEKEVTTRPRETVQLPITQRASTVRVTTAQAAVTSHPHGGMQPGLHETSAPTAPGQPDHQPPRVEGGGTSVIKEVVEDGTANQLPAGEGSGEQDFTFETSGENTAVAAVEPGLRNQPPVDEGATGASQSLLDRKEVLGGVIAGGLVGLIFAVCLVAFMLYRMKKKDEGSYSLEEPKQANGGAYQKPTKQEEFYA
UniProt P26350: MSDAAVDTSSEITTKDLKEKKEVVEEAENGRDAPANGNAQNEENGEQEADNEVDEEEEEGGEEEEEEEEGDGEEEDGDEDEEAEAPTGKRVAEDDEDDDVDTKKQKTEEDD
UniProt P16460: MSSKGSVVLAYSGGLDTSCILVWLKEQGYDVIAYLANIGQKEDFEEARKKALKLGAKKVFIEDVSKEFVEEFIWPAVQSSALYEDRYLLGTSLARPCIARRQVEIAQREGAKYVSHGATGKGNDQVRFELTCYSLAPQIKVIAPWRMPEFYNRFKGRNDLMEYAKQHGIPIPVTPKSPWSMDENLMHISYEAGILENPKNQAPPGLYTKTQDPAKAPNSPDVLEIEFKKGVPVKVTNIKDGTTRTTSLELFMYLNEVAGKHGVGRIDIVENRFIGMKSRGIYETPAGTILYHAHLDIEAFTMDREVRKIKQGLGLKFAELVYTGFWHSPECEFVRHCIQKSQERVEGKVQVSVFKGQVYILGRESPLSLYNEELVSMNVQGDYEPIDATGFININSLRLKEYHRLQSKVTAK

These targets were tested with CN[C@@H]1C[C@H]2O[C@@](C)([C@@H]1OC)n1c3ccccc3c3c4c(c5c6ccccc6n2c5c31)C(=O)NC4 [staurosporine] (assay: log2 fold change of tryptic peptide abundance, ligand vs vehicle (limited proteolysis) (log2 ratio); higher = more trypsin-susceptible (destabilized)). Details: ligand concentration: 20 uM; sample: mouse liver crude lysate; replicate design: treated separately.
For “UniProt P19001 (peptide sequence: SQYEIMAEK, peptide start residue: 257)”, the log2 fold change was -0.164. “UniProt P29788 (peptide sequence: EPQFISR, peptide start residue: 330)” gave a log2 fold change of -0.163. “UniProt P30658 (peptide sequence: MSQSQVQAASR, peptide start residue: 263)” showed a log2 fold change of -0.667. For “UniProt P17717 (peptide sequence: IILDELVQR, peptide start residue: 41)”, the log2 fold change was -0.422. For “UniProt P27048 (peptide sequence: HMNLILCDCDEFR, peptide start residue: 37)”, the log2 fold change was -0.377. With “UniProt P19788 (peptide sequence: NANTFMSPQQR, peptide start residue: 39)” the log2 fold change was 0.0989. Target “UniProt P20108 (peptide sequence: EYFEKVHQ, peptide start residue: 250)” has a log2 fold change of -0.188. In the case of “UniProt P25206 (peptide sequence: SVHYCPATKK, peptide start residue: 144)”, the log2 fold change is reported as 0.735. For “UniProt P22366 (peptide sequence: ELETRPDPTR, peptide start residue: 63)”, the log2 fold change was -0.271. Target “UniProt P34927 (peptide sequence: TKDYQDFQHLDNDNDHHQLR, peptide start residue: 2)” has a log2 fold change of -0.0775. Target “UniProt P23708 (peptide sequence: EKDSPHMQDPNQADEEAMTQIIR, peptide start residue: 322)” has a log2 fold change of 0.202. With “UniProt P23249 (peptide sequence: IANLAFVTK, peptide start residue: 63)” the log2 fold change was 0.367. In the case of “UniProt P21570 (peptide sequence: FLTQHHDAKPK, peptide start residue: 33)”, the log2 fold change is reported as 0.443. With “UniProt P28666 (peptide sequence: YASAEHVAYAVYSLSK, peptide start residue: 431)” the log2 fold change was -0.454. “UniProt P26638 (peptide sequence: VLDLDLFRVDK, peptide start residue: 2)” showed a log2 fold change of 0.272. For “UniProt P35279 (peptide sequence: SLIPSYIR, peptide start residue: 77)”, the log2 fold change was -0.101. In the case of “UniProt P33175 (peptide sequence: TNLSVHEDKNR, peptide start residue: 151)”, the log2 fold change is reported as 0.0846. In the case of “UniProt P28352 (peptide sequence: AAADDGEEPKSEPETK, peptide start residue: 8)”, the log2 fold change is reported as 0.152. Work on “UniProt P20065 (peptide sequence: KTETQEK, peptide start residue: 26)” yielded a log2 fold change of -0.519. Target “UniProt P17809 (peptide sequence: LRGTADVTR, peptide start residue: 231)” has a log2 fold change of -0.448. Target “UniProt P25976 (peptide sequence: QWSQLSDK, peptide start residue: 233)” has a log2 fold change of -0.227. For “UniProt P28474 (peptide sequence: IIGIDINKDKFAK, peptide start residue: 219)”, the log2 fold change was 0.0949. For “UniProt P23204 (peptide sequence: MVANGVEDKEAEVR, peptide start residue: 258)”, the log2 fold change was 0.165. Target “UniProt P22361 (peptide sequence: AALYTWYVR, peptide start residue: 160)” has a log2 fold change of -0.217. Work on “UniProt P28651 (peptide sequence: GSEHTVNFK, peptide start residue: 127)” yielded a log2 fold change of 0.32. With “UniProt P28033 (peptide sequence: VLELTAENER, peptide start residue: 254)” the log2 fold change was -0.169. In the case of “UniProt P18828 (peptide sequence: VEGGGTSVIK, peptide start residue: 181)”, the log2 fold change is reported as 0.136. “UniProt P29037 (peptide sequence: TTALIFSSGK, peptide start residue: 186)” gave a log2 fold change of -0.0668. Target “UniProt P30558 (peptide sequence: MDTCSSHLNNSIYKK, peptide start residue: 413)” has a log2 fold change of -0.186. For “UniProt P19246 (peptide sequence: IPSISTHIK, peptide start residue: 427)”, the log2 fold change was 0.444. “UniProt P28665 (peptide sequence: HVAYAVYSLSK, peptide start residue: 436)” was tested, and the log2 fold change was 0.775. With “UniProt P28738 (peptide sequence: ILQDSLGGNCR, peptide start residue: 285)” the log2 fold change was 0.0983. In the case of “UniProt P26350 (peptide sequence: KEVVEEAENGR, peptide start residue: 21)”, the log2 fold change is reported as 0.12. In the case of “UniProt P22682 (peptide sequence: ALVIAHNNIEMAK, peptide start residue: 884)”, the log2 fold change is reported as 0.203. Target “UniProt P16406 (peptide sequence: TTYMEDGQIR, peptide start residue: 198)” has a log2 fold change of -0.514. In the case of “UniProt P19096 (peptide sequence: SSCTIIPLMK, peptide start residue: 777)”, the log2 fold change is reported as -0.526. With “UniProt P16460 (peptide sequence: FKGRNDLMEYAK, peptide start residue: 154)” the log2 fold change was 0.151. “UniProt P18572 (peptide sequence: GSGTHMNDKDKNVR, peptide start residue: 371)” gave a log2 fold change of -0.422. “UniProt P23950 (peptide sequence: QPGSGQVNSSR, peptide start residue: 104)” showed a log2 fold change of -0.2.
